Test results from the supplement of paper PMC12823440, “Inhibitors supercharge kinase turnover through native proteolytic circuits” (Nature, 2025).
Counter-ions that a name gives are not always drawn. The list shows a part of the results. The calls rarely recur for the same compound in another form.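 Kinases, fused to nanoluciferase, were expressed in K562 cells; luminescence was measured every 4 h from 2 to 18 h as percent of control (DMSO = 100%, positive control = 0%). A time point is decreased if signal falls significantly (2 sigma). Hits were called by the authors by a rule that is not shown; the count of time points alone does not decide it.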

The chains behind the UniProt entries cited, without tags or fusion partners. Where a name states a change or a piece, a line headed by the entry shows the natural chain unless it says otherwise.
UniProt P50613: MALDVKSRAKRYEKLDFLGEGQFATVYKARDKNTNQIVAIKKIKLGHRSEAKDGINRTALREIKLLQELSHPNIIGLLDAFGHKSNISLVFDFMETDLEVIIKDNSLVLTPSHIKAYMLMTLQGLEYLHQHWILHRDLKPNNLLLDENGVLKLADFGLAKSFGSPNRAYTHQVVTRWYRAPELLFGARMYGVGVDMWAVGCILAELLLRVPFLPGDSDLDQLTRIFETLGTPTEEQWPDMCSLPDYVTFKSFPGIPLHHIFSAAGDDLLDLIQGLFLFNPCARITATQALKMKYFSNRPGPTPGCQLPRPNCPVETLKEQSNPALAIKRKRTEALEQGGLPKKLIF
UniProt P50750, whole entry: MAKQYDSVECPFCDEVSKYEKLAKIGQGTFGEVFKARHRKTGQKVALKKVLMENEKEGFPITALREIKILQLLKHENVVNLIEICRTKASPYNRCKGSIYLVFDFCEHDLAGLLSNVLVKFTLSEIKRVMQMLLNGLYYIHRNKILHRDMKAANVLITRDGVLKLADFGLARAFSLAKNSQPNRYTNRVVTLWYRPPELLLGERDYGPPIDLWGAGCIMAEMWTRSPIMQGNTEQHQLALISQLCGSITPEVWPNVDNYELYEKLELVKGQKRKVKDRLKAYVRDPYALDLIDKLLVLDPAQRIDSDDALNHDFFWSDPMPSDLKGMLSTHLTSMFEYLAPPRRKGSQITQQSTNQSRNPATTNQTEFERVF
UniProt O96017, whole entry: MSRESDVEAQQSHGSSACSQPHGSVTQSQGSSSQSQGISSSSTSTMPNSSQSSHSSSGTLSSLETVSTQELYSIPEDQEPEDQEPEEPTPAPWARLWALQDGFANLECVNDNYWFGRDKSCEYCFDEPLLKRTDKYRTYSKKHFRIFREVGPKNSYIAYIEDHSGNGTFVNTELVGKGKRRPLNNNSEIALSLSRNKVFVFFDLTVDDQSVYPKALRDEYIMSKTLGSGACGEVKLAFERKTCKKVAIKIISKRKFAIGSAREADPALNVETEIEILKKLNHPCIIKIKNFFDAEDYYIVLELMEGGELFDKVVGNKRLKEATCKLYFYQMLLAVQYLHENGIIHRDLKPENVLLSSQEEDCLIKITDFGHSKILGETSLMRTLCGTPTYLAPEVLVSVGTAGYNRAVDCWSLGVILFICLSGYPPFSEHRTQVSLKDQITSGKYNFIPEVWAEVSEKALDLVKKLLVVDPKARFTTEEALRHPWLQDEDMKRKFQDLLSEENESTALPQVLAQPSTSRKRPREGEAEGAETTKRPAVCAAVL
UniProt P07333, whole entry: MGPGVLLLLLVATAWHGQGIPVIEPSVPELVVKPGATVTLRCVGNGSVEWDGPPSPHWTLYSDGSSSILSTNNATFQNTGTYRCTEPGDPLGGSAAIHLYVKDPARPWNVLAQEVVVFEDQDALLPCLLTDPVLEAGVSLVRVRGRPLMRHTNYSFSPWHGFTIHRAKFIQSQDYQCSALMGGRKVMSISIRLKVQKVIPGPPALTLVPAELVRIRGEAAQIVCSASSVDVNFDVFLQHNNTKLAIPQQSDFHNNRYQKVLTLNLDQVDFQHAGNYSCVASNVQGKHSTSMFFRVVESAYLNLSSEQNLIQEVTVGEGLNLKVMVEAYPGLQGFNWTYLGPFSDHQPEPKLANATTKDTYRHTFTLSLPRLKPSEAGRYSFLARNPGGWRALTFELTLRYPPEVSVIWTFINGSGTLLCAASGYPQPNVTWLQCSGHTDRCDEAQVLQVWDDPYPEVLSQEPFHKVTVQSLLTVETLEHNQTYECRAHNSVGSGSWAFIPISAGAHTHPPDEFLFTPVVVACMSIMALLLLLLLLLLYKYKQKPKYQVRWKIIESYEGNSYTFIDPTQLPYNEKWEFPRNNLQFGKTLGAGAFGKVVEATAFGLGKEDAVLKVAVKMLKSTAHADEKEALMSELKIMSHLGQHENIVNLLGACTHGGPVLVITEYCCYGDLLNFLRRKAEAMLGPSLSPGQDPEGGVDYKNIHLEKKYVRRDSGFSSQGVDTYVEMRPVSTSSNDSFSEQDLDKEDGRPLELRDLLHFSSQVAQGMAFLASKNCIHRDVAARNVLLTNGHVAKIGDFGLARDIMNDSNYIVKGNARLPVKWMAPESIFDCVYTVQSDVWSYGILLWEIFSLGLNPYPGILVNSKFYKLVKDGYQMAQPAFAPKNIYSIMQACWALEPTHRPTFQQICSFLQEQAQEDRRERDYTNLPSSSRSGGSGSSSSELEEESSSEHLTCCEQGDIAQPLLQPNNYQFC
UniProt P41240: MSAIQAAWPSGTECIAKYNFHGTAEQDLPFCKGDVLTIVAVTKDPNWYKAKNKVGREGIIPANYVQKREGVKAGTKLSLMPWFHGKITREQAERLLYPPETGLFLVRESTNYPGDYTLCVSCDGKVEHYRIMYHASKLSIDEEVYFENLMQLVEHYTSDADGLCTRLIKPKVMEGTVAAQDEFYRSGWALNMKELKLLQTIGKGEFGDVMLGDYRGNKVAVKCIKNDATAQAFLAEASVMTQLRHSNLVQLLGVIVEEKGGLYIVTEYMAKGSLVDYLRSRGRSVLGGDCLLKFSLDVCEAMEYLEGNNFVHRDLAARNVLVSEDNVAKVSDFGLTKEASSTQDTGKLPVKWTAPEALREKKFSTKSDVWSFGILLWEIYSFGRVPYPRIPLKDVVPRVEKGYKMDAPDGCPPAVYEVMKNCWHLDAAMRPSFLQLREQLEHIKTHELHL
UniProt P48729: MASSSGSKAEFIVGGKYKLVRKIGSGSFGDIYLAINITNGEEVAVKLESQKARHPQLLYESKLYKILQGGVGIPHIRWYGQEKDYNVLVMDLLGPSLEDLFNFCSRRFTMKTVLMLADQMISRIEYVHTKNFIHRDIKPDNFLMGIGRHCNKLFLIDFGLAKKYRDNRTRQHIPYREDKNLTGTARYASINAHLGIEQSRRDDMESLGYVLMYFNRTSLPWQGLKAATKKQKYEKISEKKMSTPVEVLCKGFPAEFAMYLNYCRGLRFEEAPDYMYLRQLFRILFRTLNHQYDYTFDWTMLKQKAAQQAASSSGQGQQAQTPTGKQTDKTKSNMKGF
UniProt P48730: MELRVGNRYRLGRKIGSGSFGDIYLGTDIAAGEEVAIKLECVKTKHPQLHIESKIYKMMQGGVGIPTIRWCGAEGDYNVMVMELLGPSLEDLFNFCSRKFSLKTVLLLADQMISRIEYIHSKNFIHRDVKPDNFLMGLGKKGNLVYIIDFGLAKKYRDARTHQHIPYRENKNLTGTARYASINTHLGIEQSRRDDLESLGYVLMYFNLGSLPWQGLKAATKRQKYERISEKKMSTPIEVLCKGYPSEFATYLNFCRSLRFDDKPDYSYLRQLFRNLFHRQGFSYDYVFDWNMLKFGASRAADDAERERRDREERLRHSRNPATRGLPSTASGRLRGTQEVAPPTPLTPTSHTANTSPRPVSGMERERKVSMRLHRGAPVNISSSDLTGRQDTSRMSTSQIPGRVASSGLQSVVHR
UniProt Q08345: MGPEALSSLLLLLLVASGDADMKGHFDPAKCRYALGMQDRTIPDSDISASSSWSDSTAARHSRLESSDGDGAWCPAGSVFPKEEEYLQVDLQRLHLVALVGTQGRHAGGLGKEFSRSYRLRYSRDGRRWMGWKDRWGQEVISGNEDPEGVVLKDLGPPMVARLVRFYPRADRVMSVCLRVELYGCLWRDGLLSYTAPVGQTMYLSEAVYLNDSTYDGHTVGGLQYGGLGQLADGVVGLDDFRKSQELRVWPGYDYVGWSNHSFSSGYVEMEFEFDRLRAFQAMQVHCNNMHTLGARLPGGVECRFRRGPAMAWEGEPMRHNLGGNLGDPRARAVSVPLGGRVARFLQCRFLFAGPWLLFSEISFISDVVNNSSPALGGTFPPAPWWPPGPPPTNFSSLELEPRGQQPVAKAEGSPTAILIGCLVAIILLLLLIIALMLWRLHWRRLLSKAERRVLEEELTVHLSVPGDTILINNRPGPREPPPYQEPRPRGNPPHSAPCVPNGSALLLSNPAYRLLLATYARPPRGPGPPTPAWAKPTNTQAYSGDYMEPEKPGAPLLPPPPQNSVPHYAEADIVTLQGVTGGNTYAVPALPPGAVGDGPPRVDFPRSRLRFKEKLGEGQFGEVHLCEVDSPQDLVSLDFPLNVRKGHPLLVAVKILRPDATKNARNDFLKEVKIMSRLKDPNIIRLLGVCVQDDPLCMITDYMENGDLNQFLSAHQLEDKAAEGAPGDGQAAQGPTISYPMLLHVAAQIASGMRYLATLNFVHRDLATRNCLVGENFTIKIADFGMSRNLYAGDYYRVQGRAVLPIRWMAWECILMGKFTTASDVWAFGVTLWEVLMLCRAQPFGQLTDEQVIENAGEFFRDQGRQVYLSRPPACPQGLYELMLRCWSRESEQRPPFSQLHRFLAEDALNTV
UniProt Q9Y463, whole entry, looked up: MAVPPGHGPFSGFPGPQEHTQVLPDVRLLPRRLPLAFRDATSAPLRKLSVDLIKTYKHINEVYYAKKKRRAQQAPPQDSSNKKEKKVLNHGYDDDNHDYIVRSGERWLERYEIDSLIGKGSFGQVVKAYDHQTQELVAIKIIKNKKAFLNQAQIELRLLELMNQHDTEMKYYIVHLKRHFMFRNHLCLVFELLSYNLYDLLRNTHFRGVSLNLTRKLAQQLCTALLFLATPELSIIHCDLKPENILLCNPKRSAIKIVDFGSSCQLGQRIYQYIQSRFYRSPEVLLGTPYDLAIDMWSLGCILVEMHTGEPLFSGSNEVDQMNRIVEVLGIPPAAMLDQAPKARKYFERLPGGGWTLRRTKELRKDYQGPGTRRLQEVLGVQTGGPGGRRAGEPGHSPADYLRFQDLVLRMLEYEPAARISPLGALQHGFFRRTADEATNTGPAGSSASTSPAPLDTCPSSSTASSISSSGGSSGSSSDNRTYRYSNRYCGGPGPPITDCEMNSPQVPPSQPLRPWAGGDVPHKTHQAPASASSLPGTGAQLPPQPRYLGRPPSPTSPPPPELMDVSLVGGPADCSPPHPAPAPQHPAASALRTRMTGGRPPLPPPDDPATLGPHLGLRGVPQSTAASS
UniProt Q92630: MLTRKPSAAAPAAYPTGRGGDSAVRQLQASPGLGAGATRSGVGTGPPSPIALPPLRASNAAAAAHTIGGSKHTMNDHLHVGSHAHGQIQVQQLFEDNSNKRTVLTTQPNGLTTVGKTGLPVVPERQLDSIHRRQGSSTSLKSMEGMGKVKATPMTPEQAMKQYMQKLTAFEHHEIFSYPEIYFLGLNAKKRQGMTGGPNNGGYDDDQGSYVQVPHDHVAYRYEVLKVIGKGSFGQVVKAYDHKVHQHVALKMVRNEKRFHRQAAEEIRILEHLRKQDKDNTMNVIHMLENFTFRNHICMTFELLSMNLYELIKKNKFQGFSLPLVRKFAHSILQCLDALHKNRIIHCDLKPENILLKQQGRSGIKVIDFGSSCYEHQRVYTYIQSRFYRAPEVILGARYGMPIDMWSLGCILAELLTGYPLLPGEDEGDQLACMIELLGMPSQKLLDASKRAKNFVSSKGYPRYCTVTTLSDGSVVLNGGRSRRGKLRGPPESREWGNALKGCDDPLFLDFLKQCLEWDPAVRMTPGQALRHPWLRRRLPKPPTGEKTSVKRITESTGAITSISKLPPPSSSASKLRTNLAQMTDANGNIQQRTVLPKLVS

Columns and labels:
Experiment in all cases: kinase-Nluc reporter destabilization hit call (1 = scored as downregulated) (binary); higher = compound decreases kinase abundance
Details in all cases: K562; 2-18 h
CDK7 = CDK7 (UniProt P50613)
CDK9 = CDK9 (UniProt P50750)
CHEK2 = CHEK2 (UniProt O96017)
CSF1R = CSF1R (UniProt P07333)
CSK = CSK (UniProt P41240)
CSNK1A1 = CSNK1A1 (UniProt P48729)
CSNK1D = CSNK1D (UniProt P48730)
DDR1 = DDR1 (UniProt Q08345)
DYRK1B = DYRK1B (UniProt Q9Y463)
DYRK2 = DYRK2 (UniProt Q92630)

| SMILES | kinase-Nluc reporter destabilization hit call (CDK7) | kinase-Nluc reporter destabilization hit call (CDK9) | kinase-Nluc reporter destabilization hit call (CHEK2) | kinase-Nluc reporter destabilization hit call (CSF1R) | kinase-Nluc reporter destabilization hit call (CSK) | kinase-Nluc reporter destabilization hit call (CSNK1A1) | kinase-Nluc reporter destabilization hit call (CSNK1D) | kinase-Nluc reporter destabilization hit call (DDR1) | kinase-Nluc reporter destabilization hit call (DYRK1B) | kinase-Nluc reporter destabilization hit call (DYRK2) |
| --- | --- | --- | --- | --- | --- | --- | --- | --- | --- | --- |
| CC(=O)Oc1ccc(/C=C/c2cc(OC(C)=O)cc(OC(C)=O)c2)cc1 [Triacetylresveratrol] (10 µM) | inactive: 0 | inactive: 0 | inactive: 0 | inactive: 0 | inactive: 0 | inactive: 0 | inactive: 0 | inactive: 0 | inactive: 0 | inactive: 0 |
| O=C1C=CC[C@@H]2[C@H]3CCCN4CCC[C@@H](CN12)[C@@H]34 [Sophocarpine (monohydrate)] (2.5 µM) | inactive: 0 | inactive: 0 | inactive: 0 | inactive: 0 | inactive: 0 | inactive: 0 | inactive: 0 | inactive: 0 | inactive: 0 | inactive: 0 |
| Cc1[nH]ncc1-c1cc2nc([C@H]3CC4CCN3CC4)[nH]c(=O)c2s1 [(R)-Simurosertib] (10 µM) | inactive: 0 | inactive: 0 | inactive: 0 | inactive: 0 | inactive: 0 | inactive: 0 | inactive: 0 | inactive: 0 | inactive: 0 | inactive: 0 |
| CN(C)C(=O)c1ccc(Cn2c(C(=O)O)cc3c(Br)cc(Sc4ccc(Cl)c(Cl)c4)cc32)cc1 [Rheb inhibitor NR1] (10 µM) | inactive: 0 | inactive: 0 | inactive: 0 | inactive: 0 | inactive: 0 | inactive: 0 | inactive: 0 | inactive: 0 | inactive: 0 | inactive: 0 |
| O=c1[nH]c2ccccc2n1C1CCN(Cc2ccc(-c3[nH]c4cc5ncnc5cc4nc3-c3ccccc3)cc2)CC1 [AKT inhibitor VIII] (2.5 µM) | inactive: 0 | inactive: 0 | inactive: 0 | inactive: 0 | inactive: 0 | inactive: 0 | inactive: 0 | inactive: 0 | inactive: 0 | inactive: 0 |
| CC(C)(C)c1cc(C=C(C#N)C#N)cc(Br)c1O (2.5 µM) | inactive: 0 | inactive: 0 | inactive: 0 | inactive: 0 | inactive: 0 | inactive: 0 | inactive: 0 | inactive: 0 | inactive: 0 | inactive: 0 |
| C=CC(=O)Nc1ccc2[nH]c(=O)n(C3CCN(Cc4ccc(-c5nc6cc[nH]c(=O)c6cc5-c5ccccc5)cc4)CC3)c2c1 [Borussertib] (10 µM) | inactive: 0 | inactive: 0 | inactive: 0 | inactive: 0 | inactive: 0 | inactive: 0 | inactive: 0 | inactive: 0 | inactive: 0 | inactive: 0 |
| C[C@@H]1CC[C@H]2[C@@H](C)C(=O)O[C@@H]3O[C@@]4(C)CC[C@@H]1[C@]32OO4 [Artemisinin] (10 µM) | inactive: 0 | inactive: 0 | inactive: 0 | inactive: 0 | inactive: 0 | inactive: 0 | inactive: 0 | inactive: 0 | inactive: 0 | inactive: 0 |
| Nc1ncnc2c1ncn2[C@@H]1O[C@@H]2COP(O)(=S)O[C@H]2[C@H]1O (stereo not given in full) [Sp-cAMPS (sodium salt)] (10 µM) | inactive: 0 | inactive: 0 | inactive: 0 | inactive: 0 | inactive: 0 | inactive: 0 | inactive: 0 | inactive: 0 | inactive: 0 | inactive: 0 |
| N#CC(C#N)=NNc1cccc(Cl)c1 (2.5 µM) | inactive: 0 | inactive: 0 | inactive: 0 | inactive: 0 | inactive: 0 | inactive: 0 | inactive: 0 | inactive: 0 | inactive: 0 | inactive: 0 |
| C[C@H](Nc1ncnc2[nH]cnc12)c1nc2ccc(F)cc2c(=O)n1-c1ccccc1 [Acalisib] (10 µM) | inactive: 0 | inactive: 0 | inactive: 0 | inactive: 0 | inactive: 0 | inactive: 0 | inactive: 0 | inactive: 0 | inactive: 0 | inactive: 0 |
| COc1ccc(N(C(=O)Oc2c(C)cccc2C)c2ccnc(Nc3ccc(N4CCN(C)CC4)cc3)n2)c(OC)c1 (2.5 µM) | inactive: 0 | inactive: 0 | inactive: 0 | inactive: 0 | inactive: 0 | inactive: 0 | inactive: 0 | inactive: 0 | inactive: 0 | inactive: 0 |
| CC1=C[C@]23C(=O)[C@@H](C=C(CO)[C@@H](O)[C@]2(O)[C@H]1O)[C@H]1[C@@H](C[C@H]3C)C1(C)C [Ingenol] (10 µM) | inactive: 0 | inactive: 0 | inactive: 0 | inactive: 0 | inactive: 0 | inactive: 0 | inactive: 0 | inactive: 0 | inactive: 0 | inactive: 0 |
| O=C1c2ccccc2C(=O)c2c1cccc2-c1cnn(C2CCNCC2)c1 [PDK4-IN-1 (hydrochloride)] (10 µM) | inactive: 0 | inactive: 0 | inactive: 0 | inactive: 0 | inactive: 0 | inactive: 0 | inactive: 0 | inactive: 0 | inactive: 0 | inactive: 0 |
| C[C@H](CCC(=O)O)C[C@H](C)C[C@H](C)C(=O)/C=C(\O)[C@H](C)C[C@H](C)C/C=C/[C@@H](C)[C@@H](O)[C@@H](C)[C@@H](O)C[C@@H]1CC[C@@](C)([C@H]2CC[C@@](C)([C@@H](C)O)O2)O1 [Ionomycin (calcium)] (2.5 µM) | inactive: 0 | inactive: 0 | inactive: 0 | inactive: 0 | inactive: 0 | inactive: 0 | inactive: 0 | inactive: 0 | inactive: 0 | inactive: 0 |
| O=C(O)c1sc2cc(Cl)ccc2c1Cl (10 µM) | inactive: 0 | inactive: 0 | inactive: 0 | inactive: 0 | inactive: 0 | inactive: 0 | inactive: 0 | inactive: 0 | inactive: 0 | inactive: 0 |
| C[C@H]1CC[C@]2(NC1)O[C@H]1C[C@H]3[C@@H]4CC[C@H]5C[C@@H](O[C@@H]6O[C@H](CO)[C@H](O[C@@H]7O[C@H](CO)[C@@H](O)[C@H](O[C@@H]8OC[C@@H](O)[C@H](O)[C@H]8O)[C@H]7O[C@@H]7O[C@H](CO)[C@@H](O)[C@H](O)[C@H]7O)[C@H](O)[C@H]6O)CC[C@]5(C)[C@H]4CC[C@]3(C)[C@H]1[C@@H]2C [Tomatine] (2.5 µM) | inactive: 0 | inactive: 0 | inactive: 0 | active: 1 | inactive: 0 | inactive: 0 | inactive: 0 | inactive: 0 | inactive: 0 | inactive: 0 |
| COc1ccc2c(c1)/C(=C/c1cnc[nH]1)C(=O)N2 (2.5 µM) | inactive: 0 | inactive: 0 | inactive: 0 | inactive: 0 | inactive: 0 | inactive: 0 | inactive: 0 | inactive: 0 | inactive: 0 | inactive: 0 |
| COc1ccc2c(c1OC)C(OC)N(C)c1c-2ccc2cc3c(cc12)OCO3 (stereo not given) [Angoline] (10 µM) | inactive: 0 | inactive: 0 | inactive: 0 | inactive: 0 | inactive: 0 | inactive: 0 | inactive: 0 | inactive: 0 | inactive: 0 | inactive: 0 |
| CCCCNc1nc(N)c2[nH]c(=O)n(Cc3ccc(C)nc3)c2n1 (10 µM) | inactive: 0 | inactive: 0 | inactive: 0 | inactive: 0 | inactive: 0 | inactive: 0 | inactive: 0 | inactive: 0 | inactive: 0 | inactive: 0 |
| Cn1cc(C2=C(c3cn(C4CCN(Cc5ccccn5)CC4)c4ccccc34)C(=O)NC2=O)c2ccccc21 [Enzastaurin] (10 µM) | inactive: 0 | inactive: 0 | inactive: 0 | inactive: 0 | inactive: 0 | inactive: 0 | inactive: 0 | inactive: 0 | inactive: 0 | inactive: 0 |
| CCN1CCN(C(=O)Cc2ccc(Nc3ncc(F)c(Nc4ccc(C(=O)Nc5ccccc5Cl)cc4)n3)cc2)CC1 (2.5 µM) | inactive: 0 | inactive: 0 | inactive: 0 | inactive: 0 | inactive: 0 | inactive: 0 | inactive: 0 | inactive: 0 | inactive: 0 | inactive: 0 |
| C[C@H]1CC[C@]2(NC1)O[C@H]1C[C@H]3[C@@H]4CC[C@H]5C[C@@H](O)CC[C@]5(C)[C@H]4CC[C@]3(C)[C@H]1[C@@H]2C [Tomatidine (hydrochloride)] (10 µM) | inactive: 0 | inactive: 0 | inactive: 0 | inactive: 0 | inactive: 0 | inactive: 0 | inactive: 0 | inactive: 0 | inactive: 0 | inactive: 0 |
| NCCc1cn(S(=O)(=O)c2c(Cl)nc3sccn23)c2ccccc12 (10 µM) | inactive: 0 | inactive: 0 | inactive: 0 | inactive: 0 | inactive: 0 | inactive: 0 | inactive: 0 | inactive: 0 | inactive: 0 | inactive: 0 |

5 structures out of the list, ordered by molecular weight, smallest number first:

| SMILES | kinase-Nluc reporter destabilization hit call (CDK7) | kinase-Nluc reporter destabilization hit call (CDK9) | kinase-Nluc reporter destabilization hit call (CHEK2) | kinase-Nluc reporter destabilization hit call (CSF1R) | kinase-Nluc reporter destabilization hit call (CSK) | kinase-Nluc reporter destabilization hit call (CSNK1A1) | kinase-Nluc reporter destabilization hit call (CSNK1D) | kinase-Nluc reporter destabilization hit call (DDR1) | kinase-Nluc reporter destabilization hit call (DYRK1B) | kinase-Nluc reporter destabilization hit call (DYRK2) |
| --- | --- | --- | --- | --- | --- | --- | --- | --- | --- | --- |
| Nc1ncnc2c1ncn2[C@@H]1O[C@@H]2COP(O)(=S)O[C@H]2[C@H]1O (stereo not given in full) [Sp-cAMPS (sodium salt)] (10 µM) | inactive: 0 | inactive: 0 | inactive: 0 | inactive: 0 | inactive: 0 | inactive: 0 | inactive: 0 | inactive: 0 | inactive: 0 | inactive: 0 |
| NCCc1cn(S(=O)(=O)c2c(Cl)nc3sccn23)c2ccccc12 (10 µM) | inactive: 0 | inactive: 0 | inactive: 0 | inactive: 0 | inactive: 0 | inactive: 0 | inactive: 0 | inactive: 0 | inactive: 0 | inactive: 0 |
| C[C@H]1CC[C@]2(NC1)O[C@H]1C[C@H]3[C@@H]4CC[C@H]5C[C@@H](O)CC[C@]5(C)[C@H]4CC[C@]3(C)[C@H]1[C@@H]2C [Tomatidine (hydrochloride)] (10 µM) | inactive: 0 | inactive: 0 | inactive: 0 | inactive: 0 | inactive: 0 | inactive: 0 | inactive: 0 | inactive: 0 | inactive: 0 | inactive: 0 |
| CN(C)C(=O)c1ccc(Cn2c(C(=O)O)cc3c(Br)cc(Sc4ccc(Cl)c(Cl)c4)cc32)cc1 [Rheb inhibitor NR1] (10 µM) | inactive: 0 | inactive: 0 | inactive: 0 | inactive: 0 | inactive: 0 | inactive: 0 | inactive: 0 | inactive: 0 | inactive: 0 | inactive: 0 |
| C[C@H]1CC[C@]2(NC1)O[C@H]1C[C@H]3[C@@H]4CC[C@H]5C[C@@H](O[C@@H]6O[C@H](CO)[C@H](O[C@@H]7O[C@H](CO)[C@@H](O)[C@H](O[C@@H]8OC[C@@H](O)[C@H](O)[C@H]8O)[C@H]7O[C@@H]7O[C@H](CO)[C@@H](O)[C@H](O)[C@H]7O)[C@H](O)[C@H]6O)CC[C@]5(C)[C@H]4CC[C@]3(C)[C@H]1[C@@H]2C [Tomatine] (2.5 µM) | inactive: 0 | inactive: 0 | inactive: 0 | active: 1 | inactive: 0 | inactive: 0 | inactive: 0 | inactive: 0 | inactive: 0 | inactive: 0 |
